The other results are listed elsewhere or left out. Repeats are few or missing, and single values can be far off.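 Cells were imaged in 1,536-well plates, and nuclei stained with an antibody against cleaved PARP were counted against all DNA-stained nuclei to give the apoptosis fraction. Screening doses were chosen to leave most cells alive, and resting and induced cleaved-PARP levels differ strongly between cell lines.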

For this assay, the system named is MeWo. Nature of the assay: cleaved PARP positive nuclei fraction relative to DMSO control; melanoma cells; higher = more apoptosis. The following applies: library dose: low library concentration; 72 h.
As to `Cn1c(Nc2ccc(C(F)(F)F)cc2)nc2cc(Oc3ccnc(-c4ncc(C(F)(F)F)[nH]4)c3)ccc21` + CCc1ccc(CCOc2ccc(CC3SC(=O)NC3=O)cc2)nc1 [pioglitazone] (first compound 0.08 µM, partner dose 2 µM), the “cleaved PARP positive nuclei fraction” value stood at 73.2%.

For the compound `OCCn1cc(-c2cnc3nnn(Cc4ccc5ncccc5c4)c3n2)cn1` + N#Cc1c(O)c2c(-c3ccc(-c4ccccc4O)cc3)csc2[nH]c1=O [A769662] (first compound 1 µM, partner dose 2 µM), the “cleaved PARP positive nuclei fraction” value was determined as 51.5%. In the case of `C=CCn1c(=O)c2cnc(Nc3ccc(N4CCN(C)CC4)cc3)nc2n1-c1cccc(C(C)(C)O)n1` + O=C(O)C(=O)Nc1sc2c(c1C(=O)O)CCNC2 [TCS401] (first compound 0.02 µM, partner dose 1.66667 µM), the “cleaved PARP positive nuclei fraction” value is 58.2%. The value for `Cn1nnc2c(C(N)=O)ncn2c1=O` [temozolomide] + COC(=O)c1sccc1S(=O)(=O)Nc1ccc(Nc2ccccc2)cc1OC [GSK0660] (first compound 2 µM, partner dose 1 µM) was 64.5%; that for `C[C@@H]1CCN(C(=O)CC#N)C[C@@H]1N(C)c1ncnc2[nH]ccc12` + Oc1nc(-c2ccc(C(F)(F)F)cc2)nc2c1CSCC2 [XAV939] (first compound 1 µM, partner dose 2 µM) was 119%. Consider `COCC[n+]1c2c(n(Cc3cnccn3)c1C)C(=O)c1ccccc1C2=O` + O=C(O)C(=O)Nc1sc2c(c1C(=O)O)CCNC2 [TCS401] (first compound 0.0004 µM, partner dose 1.66667 µM), for which the “cleaved PARP positive nuclei fraction” value stood at 131%. The value for `O=C(CCCCCCC(=O)Nc1ccccc1)NO` [vorinostat] + Oc1nc(-c2ccc(C(F)(F)F)cc2)nc2c1CSCC2 [XAV939] (first compound 0.08 µM, partner dose 2 µM) was 39.7%.

Turning to `COc1cc(Nc2ncc(F)c(Nc3ccc4c(n3)NC(=O)C(C)(C)O4)n2)cc(OC)c1OC` [Tamatinib] + COc1ccc(COc2ccc(Cc3cnc(N)nc3N)cc2OC)cc1 [GW2580] (first compound 0.4 µM, partner dose 1 µM), the “cleaved PARP positive nuclei fraction” value is 37.9%. As to `Cc1nc(Nc2ncc(C(=O)Nc3c(C)cccc3Cl)s2)cc(N2CCN(CCO)CC2)n1` [dasatanib] + CCc1ccc(CCOc2ccc(CC3SC(=O)NC3=O)cc2)nc1 [pioglitazone] (first compound 0.004 µM, partner dose 2 µM), the “cleaved PARP positive nuclei fraction” value stood at 37.9%. As for `Cc1cc(N2CCOCC2)cc2[nH]c(-c3c(NC[C@@H](O)c4cccc(Cl)c4)cc[nH]c3=O)nc12` + Cn1cc(/C=C2\C(=O)Nc3cccnc32)c2ccccc21 [GW441756] (first compound 0.2 µM, partner dose 0.4 µM), the figure is 110%; as for `O=C(CCCCCCC(=O)Nc1ccccc1)NO` [vorinostat] + O=C(O)C(=O)Nc1sc2c(c1C(=O)O)CCNC2 [TCS401] (first compound 0.08 µM, partner dose 1.66667 µM), 102%. Consider `OCCn1cc(-c2cnc3nnn(Cc4ccc5ncccc5c4)c3n2)cn1` + c1cc(-c2cnn3cc(-c4ccc(OCCN5CCCCC5)cc4)cnc23)ccn1 [Dorsomorphin] (first compound 1 µM, partner dose 0.4 µM), for which the “cleaved PARP positive nuclei fraction” value was determined as 47.3%. As to `CC1(C)NC(=O)N(c2ccc([N+](=O)[O-])c(C(F)(F)F)c2)C1=O` [nilutamide] + CCCCCCCCCCCC1=C(O)C(=O)C=C(O)C1=O [Embelin] (first compound 1 µM, partner dose 1.2 µM), the “cleaved PARP positive nuclei fraction” value turned out to be 66.7%. Regarding `Cn1nnc2c(C(N)=O)ncn2c1=O` [temozolomide] + COc1ccc2c(c1)CCC1C2CCC2(C)C(NCCCCCCN3C(=O)C=CC3=O)CCC12 [U73122] (first compound 2 µM, partner dose 0.4 µM), the “cleaved PARP positive nuclei fraction” value was 130%. The value for `Cn1nnc2c(C(N)=O)ncn2c1=O` [temozolomide] + O=S(=O)(c1ccccc1)N(CC(F)(F)F)c1ccc(C(O)(C(F)(F)F)C(F)(F)F)cc1 [T0901317] (first compound 2 µM, partner dose 1.4 µM) was 21.7%; that for `O=C(CCCCCCC(=O)Nc1ccccc1)NO` [vorinostat] + O=c1cc(-c2cccc3c2Sc2ccccc2S3)oc(N2CCOCC2)c1 [KU55933] (first compound 0.08 µM, partner dose 1 µM) was 120%. Regarding `C[C@@H]1CCN(C(=O)CC#N)C[C@@H]1N(C)c1ncnc2[nH]ccc12` + CC(C)CCN1c2nc(Nc3cc(F)c(O)c(F)c3)ncc2N(C)C(=O)C1C [BID1870] (first compound 1 µM, partner dose 0.2 µM), the “cleaved PARP positive nuclei fraction” value is 105%. As for `Cn1nnc2c(C(N)=O)ncn2c1=O` [temozolomide] + COc1ccc(-c2ccc3c(N4CCOCC4)nc(N4C[C@@H](C)O[C@@H](C)C4)nc3n2)cc1CO [KU0063794] (first compound 2 µM, partner dose 0.02 µM), the figure is 66.2%; as for `Nc1cccc2c1CN(C1CCC(=O)NC1=O)C2=O` (stereo not drawn) [lenalidomide] + CCN(CC)CCCCNc1ncc2cc(-c3cc(OC)cc(OC)c3)c(NC(=O)NC(C)(C)C)nc2n1 [PD173074] (first compound 1 µM, partner dose 0.1 µM), 49.8%; as for `Cc1nc(Nc2ncc(C(=O)Nc3c(C)cccc3Cl)s2)cc(N2CCN(CCO)CC2)n1` [dasatanib] + CCCCCCCCCCCC1=C(O)C(=O)C=C(O)C1=O [Embelin] (first compound 0.004 µM, partner dose 1.2 µM), 39.3%. Turning to `O=C(Nc1cccc(Cl)c1)Nc1ncc(CCNc2ncnc3ccsc23)s1` + Cn1cc(/C=C2\C(=O)Nc3cccnc32)c2ccccc21 [GW441756] (first compound 0.0008 µM, partner dose 0.4 µM), the “cleaved PARP positive nuclei fraction” value came out at 35.9%. As for `Nc1cccc2c1CN(C1CCC(=O)NC1=O)C2=O` (stereo not drawn) [lenalidomide] + COc1ccc(COc2ccc(Cc3cnc(N)nc3N)cc2OC)cc1 [GW2580] (first compound 1 µM, partner dose 1 µM), the “cleaved PARP positive nuclei fraction” value came to 117%.

For `Cc1ccc(NC(=O)c2cccc(N(C)C)c2)cc1NC(=O)c1ccc(O)cc1` + O=c1cc(-c2cccc3c2Sc2ccccc2S3)oc(N2CCOCC2)c1 [KU55933] (first compound 2 µM, partner dose 1 µM), the “cleaved PARP positive nuclei fraction” value stood at 67.1%. In the case of `OCCn1cc(-c2cnc3nnn(Cc4ccc5ncccc5c4)c3n2)cn1` + Cc1cc([N+](=O)[O-])ccc1NS(=O)(=O)c1cc(Cl)ccc1Cl [FH535] (first compound 1 µM, partner dose 1 µM), the “cleaved PARP positive nuclei fraction” value was found to be 74.9%. As for `Cn1cncc1[C@@](N)(c1ccc(Cl)cc1)c1ccc2c(c1)c(-c1cccc(Cl)c1)cc(=O)n2C` [tipifarnib] + O=c1cc(-c2cccc3c2Sc2ccccc2S3)oc(N2CCOCC2)c1 [KU55933] (first compound 0.01 µM, partner dose 1 µM), the “cleaved PARP positive nuclei fraction” value is 80.3%. Take `NC(=O)Nc1cc(-c2cccc(F)c2)sc1C(=O)N[C@H]1CCCNC1` + c1cc(-c2cnn3cc(-c4ccc(OCCN5CCCCC5)cc4)cnc23)ccn1 [Dorsomorphin] (first compound 0.02 µM, partner dose 0.4 µM): the “cleaved PARP positive nuclei fraction” value was found to be 89.7%.

On to `O=C(Nc1cccc(Cl)c1)Nc1ncc(CCNc2ncnc3ccsc23)s1` + CCc1ccc(CCOc2ccc(CC3SC(=O)NC3=O)cc2)nc1 [pioglitazone] (first compound 0.0008 µM, partner dose 2 µM), for which the “cleaved PARP positive nuclei fraction” value amounted to 177%.

Consider `C[C@]1(c2nc3c(C(N)=O)cccc3[nH]2)CCCN1` [Veliparib] + COc1ccc2c(c1)CCC1C2CCC2(C)C(NCCCCCCN3C(=O)C=CC3=O)CCC12 [U73122] (first compound 1.4 µM, partner dose 0.4 µM), for which the “cleaved PARP positive nuclei fraction” value was found to be 168%. On to `C[C@@H]1CCN(C(=O)CC#N)C[C@@H]1N(C)c1ncnc2[nH]ccc12` + COc1ccc2c(c1)CCC1C2CCC2(C)C(NCCCCCCN3C(=O)C=CC3=O)CCC12 [U73122] (first compound 1 µM, partner dose 0.4 µM), for which the “cleaved PARP positive nuclei fraction” value is 19.2%.

In the case of `OCCn1cc(-c2cnc3nnn(Cc4ccc5ncccc5c4)c3n2)cn1` + COC(=O)c1sccc1S(=O)(=O)Nc1ccc(Nc2ccccc2)cc1OC [GSK0660] (first compound 1 µM, partner dose 1 µM), the “cleaved PARP positive nuclei fraction” value turned out to be 222%. As for `O=C(Nc1cccc(Cl)c1)Nc1ncc(CCNc2ncnc3ccsc23)s1` + Oc1nc(-c2ccc(C(F)(F)F)cc2)nc2c1CSCC2 [XAV939] (first compound 0.0008 µM, partner dose 2 µM), the figure is 52.5%.

Regarding `O=C(Nc1cccc(Cl)c1)Nc1ncc(CCNc2ncnc3ccsc23)s1` + COc1cc2ncnc(Nc3ccc(Oc4ccccc4)cc3)c2cc1OC [SrcI1] (first compound 0.0008 µM, partner dose 2 µM), the “cleaved PARP positive nuclei fraction” value stood at 28.1%. In the case of `COc1cc(Nc2ncc(F)c(Nc3ccc4c(n3)NC(=O)C(C)(C)O4)n2)cc(OC)c1OC` [Tamatinib] + COc1cc(N2CCC(N3CCN(C)CC3)CC2)ccc1Nc1ncc(Cl)c(Nc2ccccc2S(=O)(=O)C(C)C)n1 [NVP-TAE684] (first compound 0.4 µM, partner dose 0.08 µM), the “cleaved PARP positive nuclei fraction” value was determined as 20.1%.

Values taken from the supplement of paper PMC4604168 (melanoma cell lines).
